This is an account of results in paper PMC10936776, “Structural and functional characterization of AfsR, an SARP family transcriptional activator of antibiotic biosynthesis in Streptomyces” (PLOS Biology, 2024).

Data set [1] has as its target T1, AfsR, dephosphorylated (Streptomyces coelicolor M145) (UniProt P25941).
T1 sequence (looked up): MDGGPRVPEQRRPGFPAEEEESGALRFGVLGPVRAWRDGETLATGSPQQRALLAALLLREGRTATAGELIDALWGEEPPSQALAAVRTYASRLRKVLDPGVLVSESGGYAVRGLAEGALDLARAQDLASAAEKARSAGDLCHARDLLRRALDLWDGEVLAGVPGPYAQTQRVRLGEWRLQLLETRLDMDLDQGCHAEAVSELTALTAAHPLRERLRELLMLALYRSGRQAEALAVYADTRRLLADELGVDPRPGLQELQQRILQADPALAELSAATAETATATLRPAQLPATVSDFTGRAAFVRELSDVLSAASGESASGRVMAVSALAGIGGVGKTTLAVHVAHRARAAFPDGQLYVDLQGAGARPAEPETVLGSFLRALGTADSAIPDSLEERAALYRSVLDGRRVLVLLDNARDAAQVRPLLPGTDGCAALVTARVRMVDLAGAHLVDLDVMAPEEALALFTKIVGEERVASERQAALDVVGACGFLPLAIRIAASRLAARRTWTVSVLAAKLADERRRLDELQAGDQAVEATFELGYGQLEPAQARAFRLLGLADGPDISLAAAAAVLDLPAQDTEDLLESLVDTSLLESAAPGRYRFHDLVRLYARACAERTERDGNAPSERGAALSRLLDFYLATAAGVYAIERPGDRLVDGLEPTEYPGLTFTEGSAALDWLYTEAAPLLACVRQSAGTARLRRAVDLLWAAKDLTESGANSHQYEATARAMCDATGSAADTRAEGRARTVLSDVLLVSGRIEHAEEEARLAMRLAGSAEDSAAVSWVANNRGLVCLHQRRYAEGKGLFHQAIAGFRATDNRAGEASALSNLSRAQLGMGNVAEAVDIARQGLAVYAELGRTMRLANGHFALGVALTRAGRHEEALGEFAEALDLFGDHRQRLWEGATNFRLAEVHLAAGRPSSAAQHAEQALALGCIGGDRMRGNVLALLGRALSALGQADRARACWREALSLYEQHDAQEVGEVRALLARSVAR
In words: fluorescence polarization. Particulars: no ATP; FP: 20 mM HEPES pH 7.5, 100 mM NaCl, 5 mM MgCl2, 2 mM DTT, 5% glycerol, 0.1 ug/ml poly(dI-dC), 10 nM DNA, 30 C, 20 min; recombinant protein; residues 1-993; protein details: pET28a His tag (Ni-NTA); label: 5'-FAM. (In general: In fluorescence polarisation assays a small probe gives low polarisation when free and higher when bound to something large.)

Data set [2] deals with T2, AfsR SARP domain (Streptomyces coelicolor M145) (UniProt P25941).
T2 sequence (looked up): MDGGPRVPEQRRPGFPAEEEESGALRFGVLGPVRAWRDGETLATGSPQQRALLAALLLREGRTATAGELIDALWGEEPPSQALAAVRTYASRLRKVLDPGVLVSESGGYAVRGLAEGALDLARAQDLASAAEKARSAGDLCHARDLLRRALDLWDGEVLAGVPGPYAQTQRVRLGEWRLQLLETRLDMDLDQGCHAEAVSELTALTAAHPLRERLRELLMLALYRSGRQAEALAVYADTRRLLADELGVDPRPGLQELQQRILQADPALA
In words: fluorescence polarization. The settings on record: 5 mM Mg2+, poly(dI-dC); FP: 20 mM HEPES pH 7.5, 100 mM NaCl, 5 mM MgCl2, 2 mM DTT, 5% glycerol, 0.1 ug/ml poly(dI-dC), 10 nM DNA, 30 C, 20 min; recombinant protein; residues 1-270; protein details: pET28a His tag (Ni-NTA); label: 5'-FAM.

For part of these data: A weaker result is weaker than the reference pair of the same experiment. Tags and fusion partners may be left off the protein sequences shown. For part of these data: Construct, isoform or probe ends are uncertain for at least one entry. For part of these data: At least one verdict rests on a figure or table, not on a statement of the authors.

As for “CGGAGCGTTCAGCGTTCGTTTATCTCCCCCTG (double strand) [afs box (-45 to -14)]”, the binding result in data set [1] is “binds”.
In the case of “GGAGATGGACTCGTTCGTTTATCTCCCCCTGG (double strand) [afs box M1 (upstream DR mutated)]”, in data set [2], the binding result is listed as “binds more weakly”.
“GGAGCGTTCAGCGTTATGGGCGCTCCCCCTGG (double strand) [afs box M2 (downstream DR mutated)]”: the binding result in data set [2] was “binds more weakly”.
